The values below come from the supplement of paper PMC8256030.

Where “and” joins values, the source holds several entries; their conditions need not be identical. Equal entries are not always repeated. Some of the results follow. Single values are uncertain here, since repeats match poorly.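 HEK293T cells were given each compound shortly before transfection with a reporter in which red mCherry is followed by the SARS-CoV-2 frameshift element and then GFP in the −1 frame, so GFP appears only after frameshifting.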

Assay [1] concerns SARS-CoV-2 -1 PRF reporter mCherry-FSE-GFP(-1). Put plainly: mCherry (red) intensity as percent of control; higher = higher upstream reporter expression. The settings on record: 10 µM; 24 h; HEK293T.
The test system is the same in assay [2]. In words: percent effect, decrease of GFP/mCherry ratio (-1 PRF reporter) relative to controls; higher = stronger frameshift inhibition. The settings on record: 10 µM; 24 h; HEK293T.

Take `Cc1ccccc1-c1cc(N2CCN(C)CC2)ncc1N(C)C(=O)C(C)(C)c1cc(C(F)(F)F)cc(C(F)(F)F)c1` [netupitant]: the mCherry in assay [1] came out at 89.8%. For the same molecule, in assay [2], the percent effect was -0.352%.

In assay [1], `Nc1nc(O)c2ncn(CCC(CO)CO)c2n1` [Penciclovir] registered a mCherry of 50%. In assay [2], the percent effect was -7.16%.

Take `CC(C)OC(=O)[C@@H]1CC2=CC(=O)CC[C@]2(C)[C@H]2CC[C@@]3(C)[C@@H](CC[C@@]34CCC(=O)O4)[C@H]12` [dicirenone]: the mCherry in assay [1] came out at 104%. Further, the percent effect in assay [2] was 0.246%.

In assay [1], `COc1cc(/C=C/C(N)=O)cc(OC)c1OC` registered a mCherry of 88.9%. Moreover, the percent effect in assay [2] is -8.93%.

As for `CC1(C)O[C@@H]2[C@@H](CO[C@@]3(COS(N)(=O)=O)OC(C)(C)O[C@@H]23)O1` [topiramate], the mCherry in assay [1] was found to be 87.2%. Moreover, in assay [2], the percent effect was -1.89%.

On to `CS(=O)(=O)c1ccc(C2=C(c3ccccc3)C(=O)OC2)cc1` [rofecoxib], for which the mCherry in assay [1] is 102% and 84.8%. Also, in assay [2], the percent effect was 1.26% and -2.83%.

In assay [1], `O=c1[nH]c2cc(C(F)(F)F)c(N3CCOCC3)cc2n(CP(=O)(O)O)c1=O` [fanapanel] gave a mCherry of 107%. Also, in assay [2], the percent effect was -0.49%.

In assay [1], `O=C([O-])c1ccccc1O.[Na+]` registered a mCherry of 114%. Further, the percent effect in assay [2] was -5.77%.

`CNC[C@H](O)c1ccc(O)c(O)c1` had a mCherry in assay [1] of 110%. In addition, the percent effect in assay [2] is -0.807%.

In assay [1], `CC(C)OC(=O)CCC/C=C\C[C@@H]1[C@@H](/C=C/C(F)(F)COc2ccccc2)[C@H](O)C[C@@H]1O` [Tafluprost] returned a mCherry of 80.3%. Moreover, the percent effect in assay [2] was -3.76%.

Turning to `CC1CCCC(C)N1` (stereo not given) [nanofin], in assay [1], the mCherry was determined as 108%. Also, the percent effect in assay [2] is -1.41%.

On to `COc1cc2nc(N(C)CCCNC(=O)C3CCCO3)nc(N)c2cc1OC` (stereo not given) [alfuzosin], for which the mCherry in assay [1] was 97.8% and 87.3%. In addition, in assay [2], the percent effect was -3.77% and -3.37%.

As for `CCCC(CCC)C(=O)O[C@H]1C[C@H]2CC[C@@H](C1)[N+]2(C)C` [Anisotropine Methylbromide], the mCherry in assay [1] turned out to be 90.1%. Also, in assay [2], the percent effect was -0.727%.

Turning to `Cc1nccc2[nH]c(=O)ccc12` [medorinone], the mCherry in assay [1] was 109%. In addition, in assay [2], the percent effect is -8.75%.

The molecule `NCc1ccccc1Sc1ccccc1CO` [bipenamol] registered a mCherry in assay [1] of 99.2%. For the same molecule, in assay [2], the percent effect came to 0.0575%.

`O=C1NC(=O)C(Cc2ccc3cc(OCc4ccccc4F)ccc3c2)S1` (stereo not given) [netoglitazone] displayed a mCherry in assay [1] of 93.6%. Besides, the percent effect in assay [2] is -4.5%.

In assay [1], `CC1=C(C(=O)O)N2C(=O)[C@@H](NC(=O)[C@H](N)C3=CCC=CC3)[C@H]2SC1` [Velosef] gave a mCherry of 113%. The percent effect in assay [2] was -3.07%.

As for `CCCc1ncc(C(=O)O)s1` [tizoprolic acid], the mCherry in assay [1] stood at 97.7%. The percent effect in assay [2] is 3.31%.

In turn, `CCOC(=O)c1ccc(O)cc1` returned a mCherry in assay [1] of 111%. Moreover, the percent effect in assay [2] worked out at 1.74%.

`COc1nc(N)nc2c1ncn2[C@@H]1O[C@H](CO)[C@@H](O)[C@@H]1O` [Arranon] had a mCherry in assay [1] of 110%. For the same molecule, in assay [2], the percent effect stood at 4.26%.

`CC(=O)OCC1=C(C(=O)O)N2C(=O)[C@@H](NC(=O)Cc3cccs3)[C@H]2SC1` [cefalotin] displayed a mCherry in assay [1] of 79.9%. Further, in assay [2], the percent effect was -7.74%.

Molecule `O=C[C@H](O)[C@H]1OC(=O)[C@@H](O)[C@H]1O` [glucurolactone] displayed a mCherry in assay [1] of 84.5%. Further, in assay [2], the percent effect is -4.96%.

With `C[C@H](N)[C@H](O)c1cccc(O)c1`, the mCherry in assay [1] was determined as 115%. Moreover, in assay [2], the percent effect turned out to be 2.49%.

`CN(C)CC(c1ccc(O)cc1)C1(O)CCCCC1` (stereo not given) [desvenlafaxine] came in with a mCherry in assay [1] of 62.1%. The percent effect in assay [2] was -1.96%.

Regarding `CN1C(C(=O)Nc2ccccn2)=C(O)c2sc(Cl)cc2S1(=O)=O` [lornoxicam], in assay [1], the mCherry was found to be 99.9%. In assay [2], the percent effect is -2.8%.

`CCc1nn(CCCN2CCN(c3cccc(Cl)c3)CC2)c(=O)n1CCOc1ccccc1` displayed a mCherry in assay [1] of 78.7%. The percent effect in assay [2] is -0.989%.

In the case of `NC(N)=NCCCC(N)C(=O)O` (stereo not given), the mCherry in assay [1] amounted to 106%. The percent effect in assay [2] is -1.51%.

In the case of `O=C(OCC(O)CO)c1ccccc1Nc1ccnc2c(C(F)(F)F)cccc12` (stereo not given) [floctafenine], the mCherry in assay [1] amounted to 90.5%. The percent effect in assay [2] is -0.889%.

Regarding `Cn1c(CNc2ccc(C(=N)N)cc2)nc2cc(C(=O)N(CCC(=O)O)c3ccccn3)ccc21` [dabigatran], the mCherry in assay [1] was determined as 100%. The percent effect in assay [2] is -2.85%.

The molecule `O=P(O)(O)O[C@@H]1[C@H](OP(=O)(O)O)[C@H](O)[C@@H](O)[C@H](O)[C@H]1OP(=O)(O)O` [atrinositol] displayed a mCherry in assay [1] of 47.8%. Moreover, in assay [2], the percent effect was -61.7%.

The molecule `CNC(=O)[C@@H](NC(=O)[C@H](CC(C)C)[C@H](O)C(=O)NO)C(C)(C)C` [marimastat] displayed a mCherry in assay [1] of 68.8%. Besides, in assay [2], the percent effect is -12.9%.

Take `CCN(CC)CCCC(C)Nc1ccnc2cc(Cl)ccc12` (stereo not given): the mCherry in assay [1] was determined as 96%. The percent effect in assay [2] was -0.918%.

`O=C1CN(/N=C/c2ccc(-c3ccc([N+](=O)[O-])cc3)o2)C(=O)N1` [dantrolene] displayed a mCherry in assay [1] of 101%. Moreover, in assay [2], the percent effect is -1.7%.

Consider `CC1=C(C(=O)OC(C)C)C(c2cccc([N+](=O)[O-])c2)C(C(=O)OC2CN(C(c3ccccc3)c3ccccc3)C2)=C(N)N1` (stereo not given) [azelnidipine], for which, in assay [1], the mCherry worked out at 75.5%. In assay [2], the percent effect was -1.38%.

In the case of `C[C@]12CCC(=O)C=C1C=C[C@@H]1[C@@H]2CC[C@@]2(C)[C@H]1CC[C@@]21CCC(=O)O1` [canrenone], the mCherry in assay [1] came out at 94.2%. Further, the percent effect in assay [2] was 2.68%.
